Data as given in patent publication US20260174677A1, “METHODS OF TREATING INSULIN RESISTANCE AND ASSOCIATED DISORDERS” (The University of Melboune, priority 2022, published 2026).
Results are given in words; binding and its absence hold for the method and conditions named. Some binding calls cover weakened binding; strength is not graded here.

The chains behind the UniProt entries cited, without tags or fusion partners. Where a name states a change or a piece, a line headed by the entry shows the natural chain unless it says otherwise. Residues count along the entry.
UniProt P13608, residues 17-2364: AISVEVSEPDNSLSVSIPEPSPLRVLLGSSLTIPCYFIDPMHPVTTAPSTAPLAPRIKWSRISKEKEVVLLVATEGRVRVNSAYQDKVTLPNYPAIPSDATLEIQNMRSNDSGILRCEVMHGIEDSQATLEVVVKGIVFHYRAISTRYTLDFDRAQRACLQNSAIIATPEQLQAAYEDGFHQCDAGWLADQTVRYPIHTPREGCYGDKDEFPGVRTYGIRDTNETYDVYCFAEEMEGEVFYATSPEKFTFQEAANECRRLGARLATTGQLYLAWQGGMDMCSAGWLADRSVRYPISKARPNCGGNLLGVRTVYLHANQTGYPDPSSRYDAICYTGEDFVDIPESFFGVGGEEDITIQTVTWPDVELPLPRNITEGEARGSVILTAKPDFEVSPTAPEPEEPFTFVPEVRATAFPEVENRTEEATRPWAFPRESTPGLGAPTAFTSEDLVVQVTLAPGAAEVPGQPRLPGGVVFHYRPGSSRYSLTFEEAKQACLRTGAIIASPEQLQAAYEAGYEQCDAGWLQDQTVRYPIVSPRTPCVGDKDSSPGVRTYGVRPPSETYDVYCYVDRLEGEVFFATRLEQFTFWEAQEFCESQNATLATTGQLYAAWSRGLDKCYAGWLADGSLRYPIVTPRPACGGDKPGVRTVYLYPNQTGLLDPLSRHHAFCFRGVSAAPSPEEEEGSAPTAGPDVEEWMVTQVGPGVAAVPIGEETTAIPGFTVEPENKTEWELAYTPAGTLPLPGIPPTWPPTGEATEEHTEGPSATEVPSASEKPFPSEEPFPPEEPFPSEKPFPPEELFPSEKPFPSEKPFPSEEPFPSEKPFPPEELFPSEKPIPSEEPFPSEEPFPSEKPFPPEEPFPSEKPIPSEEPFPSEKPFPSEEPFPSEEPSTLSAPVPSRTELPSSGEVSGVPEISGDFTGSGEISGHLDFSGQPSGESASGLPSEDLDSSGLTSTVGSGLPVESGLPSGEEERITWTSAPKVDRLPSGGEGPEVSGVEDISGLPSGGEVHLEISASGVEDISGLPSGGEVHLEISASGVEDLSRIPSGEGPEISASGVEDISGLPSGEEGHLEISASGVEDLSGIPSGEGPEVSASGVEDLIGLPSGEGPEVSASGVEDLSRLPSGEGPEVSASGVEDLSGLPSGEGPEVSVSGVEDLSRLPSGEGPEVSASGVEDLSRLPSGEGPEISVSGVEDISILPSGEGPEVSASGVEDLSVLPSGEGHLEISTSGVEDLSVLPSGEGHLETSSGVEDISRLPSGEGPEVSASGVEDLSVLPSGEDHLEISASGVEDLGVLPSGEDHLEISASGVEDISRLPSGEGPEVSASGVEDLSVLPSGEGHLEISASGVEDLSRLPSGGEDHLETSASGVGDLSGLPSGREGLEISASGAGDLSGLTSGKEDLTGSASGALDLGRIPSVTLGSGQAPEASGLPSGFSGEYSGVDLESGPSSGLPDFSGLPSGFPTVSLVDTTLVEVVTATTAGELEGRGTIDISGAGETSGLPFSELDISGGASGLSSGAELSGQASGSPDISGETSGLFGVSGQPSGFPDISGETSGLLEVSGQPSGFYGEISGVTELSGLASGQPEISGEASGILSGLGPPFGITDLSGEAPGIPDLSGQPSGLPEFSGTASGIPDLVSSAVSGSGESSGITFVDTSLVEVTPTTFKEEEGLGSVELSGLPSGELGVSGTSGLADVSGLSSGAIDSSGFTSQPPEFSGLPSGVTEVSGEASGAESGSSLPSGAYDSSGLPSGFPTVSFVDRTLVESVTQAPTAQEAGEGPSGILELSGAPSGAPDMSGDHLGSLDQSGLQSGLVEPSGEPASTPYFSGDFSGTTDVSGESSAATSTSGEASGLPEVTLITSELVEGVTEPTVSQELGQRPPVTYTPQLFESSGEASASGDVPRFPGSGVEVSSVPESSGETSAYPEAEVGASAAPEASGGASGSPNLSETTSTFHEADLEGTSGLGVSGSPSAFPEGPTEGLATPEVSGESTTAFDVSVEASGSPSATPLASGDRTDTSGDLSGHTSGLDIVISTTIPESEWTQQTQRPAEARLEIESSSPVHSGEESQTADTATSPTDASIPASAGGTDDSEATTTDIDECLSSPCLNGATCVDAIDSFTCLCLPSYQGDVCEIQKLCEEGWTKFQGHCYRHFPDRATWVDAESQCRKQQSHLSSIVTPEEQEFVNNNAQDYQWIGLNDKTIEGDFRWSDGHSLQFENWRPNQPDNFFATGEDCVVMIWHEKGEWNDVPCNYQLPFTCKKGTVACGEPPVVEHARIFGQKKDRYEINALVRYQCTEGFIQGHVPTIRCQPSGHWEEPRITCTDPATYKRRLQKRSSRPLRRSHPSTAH
UniProt P01308: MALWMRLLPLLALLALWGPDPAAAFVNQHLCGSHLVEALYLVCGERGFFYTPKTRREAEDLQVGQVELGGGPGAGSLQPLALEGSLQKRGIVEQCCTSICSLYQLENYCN

Target: purified aggrecan (A1960, Merck Millipore) (UniProt P13608)
Assay: in vitro plate binding assay; aggrecan coated at 10 ug/ml, insulin-FITC 5 ng/ml-1 mg/ml for 2 h, read at 495 nm

**Q.** “fluorescein isothiocyanate tagged insulin (insulin-FITC) (from UniProt P01308 25-54; P01308 90-110) (peptide)” was tested. Which binding did it give?
**A.** binds
